Test results as given in article PMC3420946.
These are yes or no findings as the source states them, for the method shown. Binding seen in cells or lysates may run through a third protein.

Amino acid sequences for entries named in this document (tags omitted).
UniProt P22366: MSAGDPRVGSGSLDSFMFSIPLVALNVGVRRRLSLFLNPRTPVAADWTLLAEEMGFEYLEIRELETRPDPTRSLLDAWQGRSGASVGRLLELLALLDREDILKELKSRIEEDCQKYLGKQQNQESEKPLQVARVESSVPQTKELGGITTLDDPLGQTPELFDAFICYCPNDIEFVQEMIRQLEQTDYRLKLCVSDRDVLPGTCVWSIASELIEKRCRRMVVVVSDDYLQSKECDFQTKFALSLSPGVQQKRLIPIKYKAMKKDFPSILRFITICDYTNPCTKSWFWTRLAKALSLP

Target: T1, Toll like receptor 7 (TLR7) (mouse (endogenous in BMDCs)) (UniProt P58681)
T1 sequence: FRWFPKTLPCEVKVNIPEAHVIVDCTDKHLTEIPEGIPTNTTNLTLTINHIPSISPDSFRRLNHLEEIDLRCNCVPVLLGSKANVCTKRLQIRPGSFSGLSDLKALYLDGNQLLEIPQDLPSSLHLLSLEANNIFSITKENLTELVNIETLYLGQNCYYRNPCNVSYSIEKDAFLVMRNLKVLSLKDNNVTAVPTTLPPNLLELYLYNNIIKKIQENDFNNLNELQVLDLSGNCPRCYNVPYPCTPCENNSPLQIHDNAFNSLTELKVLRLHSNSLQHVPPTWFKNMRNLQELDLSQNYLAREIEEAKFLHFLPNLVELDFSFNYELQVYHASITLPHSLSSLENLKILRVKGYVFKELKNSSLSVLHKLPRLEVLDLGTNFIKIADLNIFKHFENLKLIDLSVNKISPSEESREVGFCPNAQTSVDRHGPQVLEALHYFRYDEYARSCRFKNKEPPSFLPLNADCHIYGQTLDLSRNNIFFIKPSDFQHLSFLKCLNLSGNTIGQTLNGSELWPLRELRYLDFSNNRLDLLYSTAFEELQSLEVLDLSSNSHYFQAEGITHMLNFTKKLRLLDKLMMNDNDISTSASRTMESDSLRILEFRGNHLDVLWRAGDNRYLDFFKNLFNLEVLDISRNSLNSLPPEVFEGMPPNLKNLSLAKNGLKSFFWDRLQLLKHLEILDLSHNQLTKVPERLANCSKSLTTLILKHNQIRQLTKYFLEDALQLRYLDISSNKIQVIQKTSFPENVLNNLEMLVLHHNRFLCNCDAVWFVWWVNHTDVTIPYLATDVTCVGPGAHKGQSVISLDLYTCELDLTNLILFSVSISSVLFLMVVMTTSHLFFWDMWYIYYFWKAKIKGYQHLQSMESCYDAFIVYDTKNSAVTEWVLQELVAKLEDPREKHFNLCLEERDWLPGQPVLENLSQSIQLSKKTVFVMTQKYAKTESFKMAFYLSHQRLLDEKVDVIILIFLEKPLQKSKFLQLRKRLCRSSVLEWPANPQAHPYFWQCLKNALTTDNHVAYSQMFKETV
Experiment: condition: only cells not stimulated with imiquimod; proximity ligation; Duolink in situ with anti-MyD88 and anti-TLR7 antibodies on fixed, permeabilised BMDCs not stimulated with imiquimod

binding: no binding
Substance: MyD88 (from UniProt P22366 1-296)
